Test results from PMC8386747, “Structure–activity relationship, in vitro and in vivo evaluation of novel dienyl sulphonyl fluorides as selective BuChE inhibitors for the treatment of Alzheimer's disease” (Journal of Enzyme Inhibition and Medicinal Chemistry, 2021).

How the values were obtained:
PC12 cells = assay: Neuroprotection assay against H2O2 damage; assay type: cell-based; conditions: PC12, 100 µM H2O2 (model 47.3%); donepezil, concentration not given
Procedure: PC12 cells were distributed into 96-well plates at a density of 1 × 10^4 cells/well, and after the cells were incubated overnight, they were treated with different concentrations of compound A10 (1 − 25 µM) for 3 h. Then, 100 µM H2O2 was added as a cytotoxic stimulus, and the culture was continued for 24 h in fresh medium containing this drug. Cell survival was measured by MTT assay after 24 h. The cells were incubated with 20 µL of 5 mg/mL MTT reagent for 4 h. After 4 h, the cell culture medium was removed, and 150 µL of DMSO was added to dissolve formazan. The optical density at 492 nm (OD492) was measured on a BiotekSynergy HTX multimode reader. Results were adjusted for OD measured in blank.

Aβ1-42 = conditions: mouse, in vivo, po, 15 mg/kg
Procedure: In the experiment of Aβ1-42 oligomeric injury, all mice were sacrificed after the end of behavioural study, and the brains were taken to determine the total content of Aβ1-42 with a mouse ELISA kit (Wuhan Huamei Biotechnology Co., Ltd.). Each brain tissue specimen was completely homogenised with a grinder with 10 times PBS (pH = 7.4 ± 0.1) and then centrifuged at 5000×g for 5 min. The supernatant was separated for use. Brain tissue Aβ1-42 content was calculated according to the linear regression equation. All values were expressed as mean ± SEM using GraphPadPrism8.0 software.

In the case of COc1cc2c(cc1OC)C(=O)C(CC1CCN(Cc3ccccc3)CC1)C2 (centres unmarked) [Donepezil, donepezil, reference compound], the cell survival rate (PC12 cells) is reported as 71.2% and the “decrease of brain Aβ1-42 peptides” value (Aβ1-42) is reported as 14.7%.
